Results are given in words; binding and its absence hold for the method and conditions named. Some results given as binding are weak or reduced against the parent protein; the word gives no strength.
Molecular target: adrenomedullin receptors in the lungs of dogs (dog)
Test: competition: displacement of iodine-labelled hAM from dog lungs

**Q.** With TQAQLLRVGCVLGTCQVQNLSHRLWQLMGPAGRQDSAPVDPSSPHSY (peptide, UniProt Q7Z4H4 101-147, looked up) [hAM2] as the binder, how does the binding read?
**A.** binds
